Experimental data: PubChem BioAssay AID1259254 (NCATS, 2017)
This is a random part of about 59,000 deposited reagents. About 1,550 of all reagents (2.6%) were called active. 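G2 share is only a proxy for re-replication; each gene was hit by three separate siRNAs, and active genes were retested.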 Reagents against one gene are numbered here. Further read-outs or replicates are left out here. The record does not give: the amount of reagent.

Aim: 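Gene knock-downs that lead to re-replication, shown by excess G2 DNA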 (primary screen)
System: human HCT116 colorectal cancer cells
Knock-down reagent: single siRNA against human genes
Duration: 3 days
Measured: 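Imaged Hoechst DNA stain sorts each cell into a cycle phase by DNA amount; per plate, G2 fraction set to 0% for non-targeting and 100% for GMNN siRNA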
Reading the numbers: G2 robust z-score: higher = more G2 cells, more excess DNA replication
Rule for the call: 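An siRNA counts as active if its G2 robust z-score lies at least 5 MADs above the screen median; here such calls match roughly 38% of GMNN control or more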

gene | reagent | G2 robust z-score | call
GLCCI1 (glucocorticoid induced 1) | 1 | 1.49 | inactive
GLCCI1 (glucocorticoid induced 1) | 2 | -0.285 | inactive
GLCCI1 (glucocorticoid induced 1) | 3 | 0.506 | inactive
ZDHHC4 (zDHHC palmitoyltransferase 4) | 1 | -0.182 | inactive
ZDHHC4 (zDHHC palmitoyltransferase 4) | 2 | -0.156 | inactive
ZDHHC4 (zDHHC palmitoyltransferase 4) | 3 | 0.909 | inactive
TFEB (transcription factor EB) | 1 | 3.86 | inactive
TFEB (transcription factor EB) | 2 | 2.78 | inactive
TFEB (transcription factor EB) | 3 | 6.34 | active
RPL32 (ribosomal protein L32) | 1 | 1.4 | inactive
RPL32 (ribosomal protein L32) | 2 | 3.04 | inactive
RPL32 (ribosomal protein L32) | 3 | -0.705 | inactive
IL17RC (interleukin 17 receptor C) | 1 | 0.154 | inactive
IL17RC (interleukin 17 receptor C) | 2 | -0.0624 | inactive
IL17RC (interleukin 17 receptor C) | 3 | 0.403 | inactive
ETV5 (ETS variant transcription factor 5) | 1 | -0.534 | inactive
ETV5 (ETS variant transcription factor 5) | 2 | -0.401 | inactive
ETV5 (ETS variant transcription factor 5) | 3 | 6.16 | active
ZYG11B (zyg-11 family member B, cell cycle regulator) | 1 | -0.636 | inactive
ZYG11B (zyg-11 family member B, cell cycle regulator) | 2 | 0.719 | inactive
ZYG11B (zyg-11 family member B, cell cycle regulator) | 3 | 1.82 | inactive
PPDPFL | 1 | 1.59 | inactive
PPDPFL | 2 | -1.04 | inactive
PPDPFL | 3 | -0.126 | inactive

Look-ups from above.
ZYG11B (zyg-11 family member B, cell cycle regulator) #3, call → inactive
For “call”, GLCCI1 (glucocorticoid induced 1) #2 has inactive
For “G2 robust z-score”, RPL32 (ribosomal protein L32) #1 reads 1.4
RPL32 (ribosomal protein L32) #3, call: inactive
ETV5 (ETS variant transcription factor 5) #2, G2 robust z-score = -0.401
For “G2 robust z-score”, PPDPFL #2 has -1.04

Continued.
gene | reagent | G2 robust z-score | call
HSPA8 (heat shock protein family A (Hsp70) member 8) | 1 | 2.13 | inactive
HSPA8 (heat shock protein family A (Hsp70) member 8) | 2 | -0.971 | inactive
HSPA8 (heat shock protein family A (Hsp70) member 8) | 3 | 1.61 | inactive
VPS18 (VPS18 core subunit of CORVET and HOPS complexes) | 1 | 0.279 | inactive
VPS18 (VPS18 core subunit of CORVET and HOPS complexes) | 2 | -0.636 | inactive
VPS18 (VPS18 core subunit of CORVET and HOPS complexes) | 3 | 0.837 | inactive
ROGDI (rogdi atypical leucine zipper) | 1 | -0.78 | inactive
ROGDI (rogdi atypical leucine zipper) | 2 | -0.429 | inactive
ROGDI (rogdi atypical leucine zipper) | 3 | 2.61 | inactive
GATD1 (glutamine amidotransferase class 1 domain containing 1) | 1 | 0.106 | inactive
GATD1 (glutamine amidotransferase class 1 domain containing 1) | 2 | 0.742 | inactive
GATD1 (glutamine amidotransferase class 1 domain containing 1) | 3 | -1.03 | inactive
WDR86 (WD repeat domain 86) | 1 | -0.00456 | inactive
WDR86 (WD repeat domain 86) | 2 | 0.306 | inactive
WDR86 (WD repeat domain 86) | 3 | 0.132 | inactive
CEMIP2 (cell migration inducing hyaluronidase 2) | 1 | -0.218 | inactive
CEMIP2 (cell migration inducing hyaluronidase 2) | 2 | -0.0854 | inactive
CEMIP2 (cell migration inducing hyaluronidase 2) | 3 | 0.415 | inactive
ULK2 (unc-51 like autophagy activating kinase 2) | 1 | 0.835 | inactive
ULK2 (unc-51 like autophagy activating kinase 2) | 2 | -0.698 | inactive
ULK2 (unc-51 like autophagy activating kinase 2) | 3 | 3.02 | inactive
TNFRSF9 (TNF receptor superfamily member 9) | 1 | 0.542 | inactive
TNFRSF9 (TNF receptor superfamily member 9) | 2 | 2.86 | inactive
TNFRSF9 (TNF receptor superfamily member 9) | 3 | -0.902 | inactive
LRTM1 (leucine rich repeat transmembrane protein 1) | 1 | -1.08 | inactive
LRTM1 (leucine rich repeat transmembrane protein 1) | 2 | 6.25 | active
LRTM1 (leucine rich repeat transmembrane protein 1) | 3 | 2.47 | inactive
CRISPLD2 (cysteine rich secretory protein LCCL domain containing 2) | 1 | -0.923 | inactive
CRISPLD2 (cysteine rich secretory protein LCCL domain containing 2) | 2 | 1.2 | inactive
CRISPLD2 (cysteine rich secretory protein LCCL domain containing 2) | 3 | 4.19 | inactive
PFKFB4 (6-phosphofructo-2-kinase/fructose-2,6-biphosphatase 4) | 1 | -0.346 | inactive
PFKFB4 (6-phosphofructo-2-kinase/fructose-2,6-biphosphatase 4) | 2 | -0.843 | inactive
PFKFB4 (6-phosphofructo-2-kinase/fructose-2,6-biphosphatase 4) | 3 | 1.36 | inactive
DACT3 (dishevelled binding antagonist of beta catenin 3) | 1 | 2.92 | inactive
DACT3 (dishevelled binding antagonist of beta catenin 3) | 2 | -0.0848 | inactive
DACT3 (dishevelled binding antagonist of beta catenin 3) | 3 | 1.47 | inactive
MPI (mannose phosphate isomerase) | 1 | -1.18 | inactive
MPI (mannose phosphate isomerase) | 2 | 2.32 | inactive
MPI (mannose phosphate isomerase) | 3 | -0.615 | inactive
SP3 (Sp3 transcription factor) | 1 | -1.45 | inactive
SP3 (Sp3 transcription factor) | 2 | 1.26 | inactive
SP3 (Sp3 transcription factor) | 3 | 0.0422 | inactive
FOXI1 (forkhead box I1) | 1 | 2.81 | inactive
FOXI1 (forkhead box I1) | 2 | 3.31 | inactive
FOXI1 (forkhead box I1) | 3 | 3.86 | inactive
